Article PMC7819943, “Rice protein-binding microarrays: a tool to detect cis-acting elements near promoter regions in rice”
This is one part of the list.

molecular target: T1, OsSMF1 (Oryza sativa, UniProt Q6ZLB0 1-436); test: protein-binding microarray (RPBM); PBS, 2% BSA, 51.3 ng/ul salmon testes DNA, 50 uM zinc acetate, 200 nM TF, 25 C, 1 h; high values mean tight binding; details: protein: recombinant; tags: N-terminal polyhistidine and DsRed monomer fusion (pET32a); chain copies: 2; label: CyDye5-dUTP incorporated in the synthesized complementary strand; 3' TTTTT single-stranded linker to array surface; dsDNA, one strand shown
T1 sequence: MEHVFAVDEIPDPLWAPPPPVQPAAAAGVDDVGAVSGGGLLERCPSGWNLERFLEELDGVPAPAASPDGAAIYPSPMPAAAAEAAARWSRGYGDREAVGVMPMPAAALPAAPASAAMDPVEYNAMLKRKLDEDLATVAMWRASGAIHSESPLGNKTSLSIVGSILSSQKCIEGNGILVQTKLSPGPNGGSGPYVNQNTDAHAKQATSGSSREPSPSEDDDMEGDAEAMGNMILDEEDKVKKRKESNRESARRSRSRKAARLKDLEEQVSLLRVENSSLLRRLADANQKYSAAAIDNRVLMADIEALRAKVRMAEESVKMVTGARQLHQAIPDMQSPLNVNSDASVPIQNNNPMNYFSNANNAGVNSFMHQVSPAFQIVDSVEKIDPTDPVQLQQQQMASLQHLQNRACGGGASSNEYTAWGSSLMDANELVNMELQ
Method in brief: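 The binding signal is fluorescence intensity per feature, in arbitrary units, read on an Axon 4000B scanner. Polyhistidine- and DsRed-tagged transcription factors (N-terminal fusions) from E. coli BL21-CodonPlus were purified on Ni–NTA and applied at 200 nM for 1 h at 25 °C to a double-stranded, BSA-blocked custom Agilent array in buffer with 50 µM zinc acetate.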

Sequence | binding signal
GGAGATGATAATATAGTACGTTAAGGCACTGCCTCCCGGGCGGAGTCACCTAGTGCAG | 17900 fluorescence intensity (a.u.)
TTTGGAATTTGGAGCAAGCAGTTTCCGATGTTAGAAAATACGGAGTCACCTAGTGCAG | 3180 fluorescence intensity (a.u.)
TCGGGGCCGGGTCGCTGGTGCTCGCCGACGTGCCGCCGGGCGGAGTCACCTAGTGCAG | 3640 fluorescence intensity (a.u.)
CTAGAGCCTAGAGGAGTCATCTCCATTTCTTAGCTTCTCTCGGAGTCACCTAGTGCAG | 3890 fluorescence intensity (a.u.)
CAAGTGACTGGTAAGCTGATGTGGATCAGGGAGAATCATTCGGAGTCACCTAGTGCAG | 4930 fluorescence intensity (a.u.)
ACTTCTCAAGTCGTACGGTTCTTGGTCAGCAAGCCAAGATCGGAGTCACCTAGTGCAG | 3380 fluorescence intensity (a.u.)
ATAATTTTATATGGGTGCTAGCCACGCAATTGCGCGGGCCCGGAGTCACCTAGTGCAG | 3190 fluorescence intensity (a.u.)
AATTTATACTGAAACACGTTATGGAACATGGAATTTCACCCGGAGTCACCTAGTGCAG | 3370 fluorescence intensity (a.u.)
GTGATGGTGAGGAAGTTGATGATGCTGCGCAAGATTCGGACGGAGTCACCTAGTGCAG | 4150 fluorescence intensity (a.u.)
GCATGTGACATATATAGTTCTTAATCCACGTGACTTGTGACGGAGTCACCTAGTGCAG | 3280 fluorescence intensity (a.u.)
GGTTTATTTGGGTCAACGGAAGTGAATCATGTTTCTTTGACGGAGTCACCTAGTGCAG | 3910 fluorescence intensity (a.u.)
AAAAGGAGGCCCTTTCCTGACAATAGATCCAACCAAATAGCGGAGTCACCTAGTGCAG | 3210 fluorescence intensity (a.u.)
CTTTGAAGCCCCGGGTTTGTTGCTGATGCATGGCATTTTCCGGAGTCACCTAGTGCAG | 3490 fluorescence intensity (a.u.)
CACGCCTCCGATCCCGTGGAACCCGACACCGTCACGCACCCGGAGTCACCTAGTGCAG | 4490 fluorescence intensity (a.u.)
ACGTGACTTTTATCACTGACACGTGGATCCGACGATGTCTCGGAGTCACCTAGTGCAG | 17000 fluorescence intensity (a.u.)
GTTACTAGTTTTGTGCAATCTCCCAATGATGATGGCAGCTCGGAGTCACCTAGTGCAG | 3720 fluorescence intensity (a.u.)
TATTTAGGATGTTGGCGTGGCATCGTGAGTGTTCCACTAGCGGAGTCACCTAGTGCAG | 6360 fluorescence intensity (a.u.)
GTTCGGTTTCGCGGTCAAGCGCGTGACGTGAGGTCGCCCACGGAGTCACCTAGTGCAG | 5720 fluorescence intensity (a.u.)
AACGGACGGTACAGATCTCTTTGGCTGACGCGCCCGGATCCGGAGTCACCTAGTGCAG | 35300 fluorescence intensity (a.u.)
CTCCACCACGCGCGCCGCATCCATCTCCGCCAAAATCCACCGGAGTCACCTAGTGCAG | 3160 fluorescence intensity (a.u.)
TGGGCCGAATAGGTACGCACGTGGGGAGGGGCGCGCAGGGCGGAGTCACCTAGTGCAG | 3850 fluorescence intensity (a.u.)

Quoted from the listing.
Value for TCGGGGCCGGGTCGCTGGTGCTCGCCGACGTGCCGCCGGGCGGAGTCACCTAGTGCAG under binding signal: 3640 fluorescence intensity (a.u.)
Value for TGGGCCGAATAGGTACGCACGTGGGGAGGGGCGCGCAGGGCGGAGTCACCTAGTGCAG under binding signal: 3850 fluorescence intensity (a.u.)
Value for GTTACTAGTTTTGTGCAATCTCCCAATGATGATGGCAGCTCGGAGTCACCTAGTGCAG under binding signal: 3720 fluorescence intensity (a.u.)

Carrying on.

Sequence | binding signal
CCTGCTCTTATTTCTCTTCCAGCTCATCACTTCTTCTTGCCGGAGTCACCTAGTGCAG | 11300 fluorescence intensity (a.u.)
TCAAACGCTTATGTTCATGCTGCAATCCTCTGTGGCCTTGCGGAGTCACCTAGTGCAG | 3350 fluorescence intensity (a.u.)
TGGGATGATCAAATGACTGCCACACTGTCATGTTCCTCTGCGGAGTCACCTAGTGCAG | 3610 fluorescence intensity (a.u.)
ACGAGTGGACCTTTTGCAATCCACGTATATGGAATCCCATCGGAGTCACCTAGTGCAG | 7360 fluorescence intensity (a.u.)
ACGCAAACGCAACGCAGCCGCGCGGGCGCCACCGGGTAGCCGGAGTCACCTAGTGCAG | 24500 fluorescence intensity (a.u.)
TTATCAATCTACATCGTTATAATTTAGTTCCACCGTAATTCGGAGTCACCTAGTGCAG | 4550 fluorescence intensity (a.u.)
TTCGACTGATCACTAACCATAAAATGCCTCCTCATGAAGCCGGAGTCACCTAGTGCAG | 3320 fluorescence intensity (a.u.)
AGCTGACGAAAGCACAGCTTGGTCGGTCCACGCTGGATACCGGAGTCACCTAGTGCAG | 4630 fluorescence intensity (a.u.)
GAACAAACCTTGAAGGTCTGAAGAAAATACCCTGTTCATACGGAGTCACCTAGTGCAG | 18800 fluorescence intensity (a.u.)
ACTCCACTTTAGGCTGGCAGAGTAAATTGATTTAGGCATTCGGAGTCACCTAGTGCAG | 27000 fluorescence intensity (a.u.)
CGCCAAGTGGCCTCCTCCTCCTCCAACCCATCCAATCCCCCGGAGTCACCTAGTGCAG | 3620 fluorescence intensity (a.u.)
CCCTCTTGTGGTCTCTGAGACTGAGTCACTTGCAATATCTCGGAGTCACCTAGTGCAG | 4660 fluorescence intensity (a.u.)
CACTAGCGGCCGCGCCGCGCGCCCACCGCCACCGCATACCCGGAGTCACCTAGTGCAG | 3900 fluorescence intensity (a.u.)
TTGAGTCGGTAGAAGTAATTTGCAACATCTCGGTTGCAAACGGAGTCACCTAGTGCAG | 4010 fluorescence intensity (a.u.)
CGTCCCATCACTAATCTGATAAATCTTGCAGAGATTAACGCGGAGTCACCTAGTGCAG | 22000 fluorescence intensity (a.u.)
TGTAGGAAGATATTCCTTTAGTCCTGCCACGCAACCACAACGGAGTCACCTAGTGCAG | 6570 fluorescence intensity (a.u.)
ATGTAGTTTGATCACGTCGGACACACGCTTCAGTGAATTCCGGAGTCACCTAGTGCAG | 4060 fluorescence intensity (a.u.)
GTTCGCAGAATTCCCAATACAACCACACATCTACAAGGGCCGGAGTCACCTAGTGCAG | 3180 fluorescence intensity (a.u.)
ATTCTTCCCCATTTCCTTTGGAGTCATGCAAGAATTTCACCGGAGTCACCTAGTGCAG | 3670 fluorescence intensity (a.u.)
GTCCTTGAGCGCCTCGACGGAGGTCTGCAGCCTAGAAATGCGGAGTCACCTAGTGCAG | 3180 fluorescence intensity (a.u.)
GAGTGCCCTGGGGTGGTGACGTGGAATACAATGCTATCTACGGAGTCACCTAGTGCAG | 10300 fluorescence intensity (a.u.)
